In US20100138945A1 (FEMTA PHARMACEUTICALS, published 2010):
No constants are given. Whether binding was seen depends on the method and setting. Some results given as binding are weak or reduced against the parent protein; the word gives no strength.

By UniProt entry, the sequences of proteins in these tests, tags left out. Residues count along the entry.
UniProt P05231, residues 30-212: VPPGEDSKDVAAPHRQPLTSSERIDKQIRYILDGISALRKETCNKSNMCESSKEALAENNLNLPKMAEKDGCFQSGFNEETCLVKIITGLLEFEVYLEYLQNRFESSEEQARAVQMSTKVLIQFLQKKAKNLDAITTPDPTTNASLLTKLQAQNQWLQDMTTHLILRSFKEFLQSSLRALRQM

Assays:
[1] = target: T1, human IL-6 (Interleukin-6) (human, UniProt P05231 30-212); test: competition ELISA: human IL-6 coated at 0.2 µg/ml, unlabelled antibody titrated against 0.05 µg/ml biotinylated BA001, anti-biotin-HRP, OD450
T1 construct: also called 001 IL-6 antigen

[2] = target: T1, human IL-6 (Interleukin-6); test: competition ELISA on plate-coated IL-6; competitor of biotinylated 001
[3] = target: T1, human IL-6 (Interleukin-6); test: specific activity: affinity ELISA on IL-6 divided by quantitation ELISA, normalized to BA399 = 1
Method: 200 μl washing solution (0.05% Tween-20 in PBS) was added and shaken at 200 RPM for 5 min at room temperature. The plates were emptied and residual liquid tapped out on paper towels. 200 μl blocking solution (2% Carnation milk in PBS) was added and shaken at 200 RPM for one hour at room temperature. Plates were emptied and residual liquid tapped out on paper towels. 100 μl of diluted samples for ELISA was used. The samples were shaken at 200 RPM for one hour at room temperature; plates emptied and residual liquid tapped out on paper towels. 200 μl washing solution (0.05% Tween-20 in PBS) was added, shaken at 200 RPM for 5 min at room temperature; plates emptied and residual liquid tapped out on paper towels. This process was repeated three times. 100 μl of 1:2500 dilution of anti-human IgG conjugated with HRP diluted in block solution (2% Carnation milk in PBS) was added for 001 samples. 100 μl of 1:2500 dilution of anti-rabbit IgG conjugated with HRP diluted in block solution (2% Carnation milk in PBS) was added for control antibody. The contents were shaken at 200 RPM for one hour at room temperature, plates emptied and residue liquid tapped out on paper towels. 200 μl washing solution (0.05% Tween-20 in PBS) was added, shaken at 200 RPM for 5 min at room temperature; plates emptied and residual liquid tapped out on paper towels. This process was repeated three times. 100 μl TMB substrate solution was added, and incubated at room temperature. The reaction was stopped with 1 N HCl, and the plate read at 450 nm.
This ELISA was used for determining the expression level of antibodies in cell culture supernatant. […] Covered with plate sealer and incubated at 4° C. overnight. Emptied plate and tapped out residual liquid on paper towels. Added 200 μl washing solution (0.05% Tween-20 in PBS). Shaken at 200 RPM for 5 min at room temperature. Emptied plate and tapped out residual liquid on paper towels. Added 200 μl blocking solution (2% Carnation milk in PBS). Shaken at 200 RPM for one hour at room temperature. Emptied plate and tapped out residual liquid on paper towels. Used 100 μl of diluted sample for ELISA. 20 ng/ml of human IgG and 1:2 dilution thereafter was used for standards.

| Binder | binding [1] | binding [2] | binding [3] |
| --- | --- | --- | --- |
| Anti-IL-6 Ab BA808 (antibody, V domains shown, Humanized monoclonal antibody) VH: QVQLVQSGAEVKKPGASVKVSCKASGFTFSSFAMSWIRQSPSRGLEWLGEISSGGSYTYYPDTVTGRFTISRDNAKNSLYLQMNSLRAEDTAVYYCARGLWGYYALDYWGQG VL: EIVLTQSPATLSVSPGERATLSCSASSSVSYMYWYLQKPGQSPQLLIYDTSNLASGIPPRFSGSGYGTDFTLTINNIESEDAAYYFCQQWSGYPYTFGQG | binds | binds |  |
| Anti-IL-6 Ab BA840 (antibody, V domains shown, Humanized monoclonal antibody) VH: QVQLVQSGAEVKKPGASVKVSCKASGFTFSSFAMSWIRQPPGKGLEWIGEISSGGSYTYYPDTVTGRFTISRDNAKNSLYLQMNSLRAEDTAVYYCARGLWGYYALDYWGQG VL: EIVLTQSPDFQSVTPKEKVTITCSASSSVSYMYWYLQKPGQSPQLLIYDTSNLASGIPPRFSGSGYGTDFTLTINNIESEDAAYYFCQQWSGYPYTFGQG | binds | binds |  |
| BA399_CPS_07 (antibody, V domains shown) VH: QVQLVQSGAEVKKPGASVKVSCKASHFTFSSFSMSWIRQSPSRGLEWLGEISSGGSYTYYPDTVTGRFTISRDNAKNSLYLQMNSLRAEDTAVYYCARGQWGYYALDYWGQG VL: AIQLTQSPSSLSASVGDRVTITCSASSSVSYMYWYQQKPGQAPRLLIYSTLNLASGIPPRFSGSGYGTDFTLTINNIESEDAAYYFCQQWSGYPYTFGQG |  |  | binds |
| BA399_CPS_08 (antibody, V domains shown) VH: QVQLVQSGAEVKKPGASVKVSCKASGFTFSSFSMSWIRQSPSRGLEWLGEISSGGSYTYYPDTKTGRFTISRDNAKNSLYLQMNSLRAEDTAVYYCARGLWGYYALDYWGQG VL: AIQLTQSPSSLSASVGDRVTITCYASSSVSYMYWYQQKPGQAPRLLIYDTSNLASGIPPRFSGSGYGTDFTLTINNIESEDAAYYFCQDWSGYPYTFGQG |  |  | binds |
| Anti-IL-6 Ab BA848 (antibody, V domains shown, Humanized monoclonal antibody) VH: EVQLVQSGAEVKKPGASVKVSCKASGFTFSSFAMSWVRQAPGQGLEWMGEISSGGSYTYYPDTVTGRFTISRDNAKNSLYLQMNSLRAEDTAVYYCARGLWGYYALDYWGQG VL: AIQLTQSPSSLSASVGDRVTITCSASSSVSYMYWYQQKPGQAPRLLIYDTSNLASGIPPRFSGSGYGTDFTLTINNIESEDAAYYFCQQWSGYPYTFGQG | binds | binds |  |
| Anti-IL-6 Ab BA890 (antibody, V domains shown, Humanized monoclonal antibody) VH: QVQLVQSGAEVKKPGASVKVSCKASGFTFSSFAMSWIRQPPGKGLEWIGEISSGGSYTYYPDTVTGRFTISRDNAKNSLYLQMNSLRAEDTAVYYCARGLWGYYALDYWGQG VL: AIQLTQSPSSLSASVGDRVTITCSASSSVSYMYWYQQKPGQAPRLLIYDTSNLASGIPPRFSGSGYGTDFTLTINNIESEDAAYYFCQQWSGYPYTFGQG | binds | binds |  |
| Anti-IL-6 Ab BA939 (antibody, V domains shown, Humanized monoclonal antibody) VH: QVQLVQSGAEVKKPGASVKVSCKASGFTFSSFAMSWVRQAPGQGLEWMGEISSGGSYTYYPDTVTGRFTISRDNAKNSLYLQMNSLRAEDTAVYYCARGLWGYYALDYWGQG VL: DIQMTQSPSSLSASVGDRVTITCSASSSVSYMYWYQQKPGQAPRLLIYDTSNLASGIPPRFSGSGYGTDFTLTINNIESEDAAYYFCQQWSGYPYTFGQG |  | binds |  |
| BA399_CPS_10 (antibody, V domains shown, also called Clone BA399-10; BA399_10) VH: QVQLVQSGAEVKKPGASVKVSCKASHFTFSSFSMSWIRQSPSRGLEWLGEISSGGSYHYYPDTVTGRFTISRDNAKNSLYLQMNSLRAEDTAVYYCARGQWGYYALDYWGQG VL: AIQLTQSPSSLSASVGDRVTITCYASSSVSYMYWYQQKPGQAPRLLIYDTLNLASGIPPRFSGSGYGTDFTLTINNIESEDAAYYFCQQWSGYPYTFGQG |  |  | binds |
| Clone BA399-09 (antibody, V domains shown, also called BA399-9; BA399 clone #9) VH: QVQLVQSGAEVKKPGASVKVSCKASGFTFSSFSMSWIRQSPSRGLEWLGEISSGGSYHYYPDTVTGRFTISRDNAKNSLYLQMNSLRAEDTAVYYCARGQWGYYALDYWGQG VL: AIQLTQSPSSLSASVGDRVTITCYASSSVSYMYWYQQKPGQAPRLLIYDTLNLASGIPPRFSGSGYGTDFTLTINNIESEDAAYYFCQQWSGYPYTFGQG |  |  | binds |
| Anti-IL-6 Ab BA802 (antibody, V domains shown, Humanized monoclonal antibody) VH: QVQLVQSGAEVKKPGASVKVSCKASGFTFSSFAMSWIRQSPSRGLEWLGEISSGGSYTYYPDTVTGRFTISRDNAKNSLYLQMNSLRAEDTAVYYCARGLWGYYALDYWGQG VL: EIVLTQSPDFQSVTPKEKVTITCSASSSVSYMYWYLQKPGQSPQLLIYDTSNLASGVPSRFSGSGSGTDFTLTISSLQPEDFATYYCQQWSGYPYTFGQG | binds | binds |  |
